Results taken from publication PMC8616268.
No constants are given. Whether binding was seen depends on the method and setting. In cells and extracts the contact can be indirect. Some binding calls cover weakened binding; strength is not graded here.

Protein sequences, listed by entry. Tags and fused reporters are not part of them.
UniProt P19338: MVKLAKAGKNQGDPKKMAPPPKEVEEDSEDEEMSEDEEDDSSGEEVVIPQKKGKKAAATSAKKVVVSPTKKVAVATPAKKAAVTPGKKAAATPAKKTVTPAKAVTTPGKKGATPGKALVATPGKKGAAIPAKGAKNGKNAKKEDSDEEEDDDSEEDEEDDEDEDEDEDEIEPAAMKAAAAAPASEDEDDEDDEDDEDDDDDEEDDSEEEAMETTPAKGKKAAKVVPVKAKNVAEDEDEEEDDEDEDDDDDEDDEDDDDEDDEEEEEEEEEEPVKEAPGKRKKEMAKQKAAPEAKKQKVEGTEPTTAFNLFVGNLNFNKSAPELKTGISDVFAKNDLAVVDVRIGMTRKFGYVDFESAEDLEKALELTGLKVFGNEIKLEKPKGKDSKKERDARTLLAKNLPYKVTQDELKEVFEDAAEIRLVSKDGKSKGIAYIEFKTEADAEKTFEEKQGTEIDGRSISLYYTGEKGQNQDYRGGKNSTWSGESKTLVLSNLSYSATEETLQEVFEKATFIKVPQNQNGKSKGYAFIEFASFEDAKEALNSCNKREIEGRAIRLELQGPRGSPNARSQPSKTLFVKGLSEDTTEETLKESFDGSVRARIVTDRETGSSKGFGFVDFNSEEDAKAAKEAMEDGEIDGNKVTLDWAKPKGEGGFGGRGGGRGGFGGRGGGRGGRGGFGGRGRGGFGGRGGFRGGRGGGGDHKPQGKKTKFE
UniProt Q16637: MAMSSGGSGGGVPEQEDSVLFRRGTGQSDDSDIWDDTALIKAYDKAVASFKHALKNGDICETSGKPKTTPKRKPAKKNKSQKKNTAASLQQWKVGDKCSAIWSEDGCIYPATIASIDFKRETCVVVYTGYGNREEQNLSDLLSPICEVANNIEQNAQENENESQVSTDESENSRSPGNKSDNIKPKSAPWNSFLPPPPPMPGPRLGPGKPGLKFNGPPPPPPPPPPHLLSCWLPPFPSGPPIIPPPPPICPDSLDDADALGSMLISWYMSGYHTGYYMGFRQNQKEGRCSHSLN

Columns and labels:
[1] = molecular target: nucleolin (human (endogenous in hTert-Fibroblasts, SH-SY5Y, HeLa)) (UniProt P19338); experiment: proximity ligation; in situ PLA (Duolink) in HeLa cells; antibodies to SMN and nucleolin
[2] = molecular target: nucleolin (human (endogenous in hTert-Fibroblasts, SH-SY5Y, HeLa)) (UniProt P19338); experiment: co-IP; protein part of the RIP assay: extracts of siC- and siSMN-transfected hTert-Fibroblasts, nucleolin monoclonal antibody-conjugated beads; mouse IgG beads as control; immunoblot for nucleolin and SMN
[3] = molecular target: nucleolin (human (endogenous in hTert-Fibroblasts, SH-SY5Y, HeLa)) (UniProt P19338); experiment: proximity ligation; PlaLock assay (in situ PLA combined with a padlock probe to mTOR mRNA) in fixed hTert-Fibroblasts; antibodies to SMN and nucleolin pre-incubated with PLA probes PLUS/MINUS, overnight at 37 °C
[4] = molecular target: nucleolin (human (endogenous in hTert-Fibroblasts, SH-SY5Y, HeLa)) (UniProt P19338); experiment: proximity ligation; in situ PLA (Duolink) in fixed, permeabilized hTert-Fibroblasts; rabbit polyclonal anti-SMN and mouse monoclonal anti-nucleolin
[5] = molecular target: nucleolin (human (endogenous in hTert-Fibroblasts, SH-SY5Y, HeLa)) (UniProt P19338); experiment: co-IP; cellular extracts of hTert-Fibroblasts in IP buffer (50 mM Tris-HCl pH 7.5, 250 mM NaCl, 5 mM EDTA, 0.1% Triton X-100, 5% glycerol, RNase inhibitors); nucleolin monoclonal antibody-conjugated beads, overnight at 4 °C; mouse IgG beads as negative control; Western blot for SMN
[6] = molecular target: nucleolin (human (endogenous in hTert-Fibroblasts, SH-SY5Y, HeLa)) (UniProt P19338); experiment: proximity ligation; in situ PLA (Duolink) in SH-SY5Y neuroblastoma cells; antibodies to SMN and nucleolin

Measured: binding

Survival Motor Neuron (SMN) protein (from UniProt Q16637 1-294)
binds: all assays above
